This assay addresses T1, Flag-tagged SH2B3 WT (human), Q9UQQ2.
T1 chain: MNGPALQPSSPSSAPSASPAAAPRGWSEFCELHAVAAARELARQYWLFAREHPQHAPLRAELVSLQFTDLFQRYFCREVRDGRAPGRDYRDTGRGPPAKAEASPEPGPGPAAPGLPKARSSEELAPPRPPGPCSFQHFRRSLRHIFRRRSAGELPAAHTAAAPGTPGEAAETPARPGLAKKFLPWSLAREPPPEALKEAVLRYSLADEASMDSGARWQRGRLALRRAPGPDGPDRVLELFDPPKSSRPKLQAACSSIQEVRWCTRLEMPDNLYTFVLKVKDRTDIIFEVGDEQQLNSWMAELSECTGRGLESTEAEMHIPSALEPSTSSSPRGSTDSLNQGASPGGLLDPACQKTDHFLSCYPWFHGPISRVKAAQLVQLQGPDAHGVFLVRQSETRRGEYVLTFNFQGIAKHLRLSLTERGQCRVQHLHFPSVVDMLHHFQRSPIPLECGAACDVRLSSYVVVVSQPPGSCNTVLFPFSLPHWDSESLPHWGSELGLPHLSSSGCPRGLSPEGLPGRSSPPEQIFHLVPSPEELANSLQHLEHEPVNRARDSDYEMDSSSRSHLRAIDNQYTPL
Nature of the assay: co-IP; HEK293T co-transfected with HA-JAK2 and Flag-SH2B3 WT or variants; 100 ng/mL IFNγ for 48 h; RIPA lysis; anti-Flag M2 affinity gel at 4 °C overnight; immunoblot. Particulars: remark: other sources report otherwise. A general note: In western blotting, separated proteins are transferred to a membrane and probed.

These are yes or no findings as the source states them, for the method shown. Binding seen in cells or lysates may run through a third protein. Some binding calls cover weakened binding; strength is not graded here. Where a sequence is shown, tags or fusion partners need not be part of it.

B1: HA-tagged JAK2, O60674 1-1132 (enzyme)
chain: MGMACLTMTEMEGTSTSSIYQNGDISGNANSMKQIDPVLQVYLYHSLGKSEADYLTFPSGEYVAEEICIAASKACGITPVYHNMFALMSETERIWYPPNHVFHIDESTRHNVLYRIRFYFPRWYCSGSNRAYRHGISRGAEAPLLDDFVMSYLFAQWRHDFVHGWIKVPVTHETQEECLGMAVLDMMRIAKENDQTPLAIYNSISYKTFLPKCIRAKIQDYHILTRKRIRYRFRRFIQQFSQCKATARNLKLKYLINLETLQSAFYTEKFEVKEPGSGPSGEEIFATIIITGNGGIQWSRGKHKESETLTEQDLQLYCDFPNIIDVSIKQANQEGSNESRVVTIHKQDGKNLEIELSSLREALSFVSLIDGYYRLTADAHHYLCKEVAPPAVLENIQSNCHGPISMDFAISKLKKAGNQTGLYVLRCSPKDFNKYFLTFAVERENVIEYKHCLITKNENEEYNLSGTKKNFSSLKDLLNCYQMETVRSDNIIFQFTKCCPPKPKDKSNLLVFRTNGVSDVPTSPTLQRPTHMNQMVFHKIRNEDLIFNESLGQGTFTKIFKGVRREVGDYGQLHETEVLLKVLDKAHRNYSESFFEAASMMSKLSHKHLVLNYGVCVCGDENILVQEFVKFGSLDTYLKKNKNCINILWKLEVAKQLAWAMHFLEENTLIHGNVCAKNILLIREEDRKTGNPPFIKLSDPGISITVLPKDILQERIPWVPPECIENPKNLNLATDKWSFGTTLWEICSGGDKPLSALDSQRKLQFYEDRHQLPAPKWAELANLINNCMDYEPDFRPSFRAIIRDLNSLFTPDYELLTENDMLPNMRIGALGFSGAFEDRDPTQFEERHLKFLQQLGKGNFGSVEMCRYDPLQDNTGEVVAVKKLQHSTEEHLRDFEREIEILKSLQHDNIVKYKGVCYSAGRRNLKLIMEYLPYGSLRDYLQKHKERIDHIKLLQYTSQICKGMEYLGTKRYIHRDLATRNILVENENRVKIGDFGLTKVLPQDKEYYKVKEPGESPIFWYAPESLTESKFSVASDVWSFGVVLYELFTYIEKSKSPPAEFMRMIGNDKQGQMIVFHLIELLKNNGRLPRPDGCPDEIYMIMTECWNNNVNQRPSFRDLALRVDQIRDNMAG
Consider B1, for which the binding result is “binds”.

Source of the values: article PMC11920242.
